Reference: article PMC5847153
No constants are given. Whether binding was seen depends on the method and setting. Binding seen in cells or lysates may run through a third protein. Some entries that bind do so weakly or less than the wild type. Where a sequence is shown, tags or fusion partners need not be part of it.

Molecular target: 2xFLAGbio-Sox2, P48432
Assay: co-IP; HEK cells co-transfected, total cell extracts in carin buffer (20 mM Tris pH8, 137 mM NaCl, 10 mM EDTA, 1% NP40, 10% glycerol), antibodies against myc or FLAG, protein G beads, 4 °C, western blot
Settings: remark: other sources report otherwise

binding: binds
B1: myc-tagged TCF3, Q9Z1J1 1-584 (protein)
chain: MPQLGGGRGGAGGGGGGSGAGATSGGDDLGANDELIPFQDEGGEEQEPSSDTASAQRDLDEVKSSLVNESENQSSSSDSEAERRPQPARDAFQKPRDYFAEVRRPQDGAFFKGGAYPGYPFLMIPDLSSPYLSNGPLSPGGARTYLQMKWPLLDVPSSATVKDTRSPSPAHLSNKVPVVQHPHHMHPLTPLITYSNDHFSPASPPTHLSPEIDPKTGIPRPPHPSELSPYYPLSPGAVGQIPHPLGWLVPQQGQPMYSLPPGGFRHPYPALAMNASMSSLVSSRFPHMVAPAHPGLPTSGIPHPAIVSPIVKQEPAAPSLSPAVSAKSPVTVKKEEEKKPHVKKPLNAFMLYMKEMRAKVVAECTLKESAAINQILGRKWHNLSREEQAKYYELARKERQLHAQLYPTWSARDNYGKKKKRKREKQLSQTQSQQQIQEAEGALASKSKKPCIQYLPPEKPCDSPASSHGSALDSPATPSAALASPAAPAATHSEQAQPLSLTTKPEARAQLALHSAAFLSAKAAASNSSQMGSQPPLLSRPLPLGSMPAALLTSPPTFPATLHAHQALPVLQAQPLSLVTKSAH
